In PubChem BioAssay AID504834 (National Center for Advancing Translational Sciences (NCATS), 2011):
Hit rate of the full screen: of about 320,000 compounds, about 22,000 (6.9%) were called active. The inconclusive results got no clear call from the source; some entries with a clear call stand among them for comparison. The call rests on the fitted dose curve; in most records, active means well fitted inhibition curve with a large enough effect; inconclusive means small, poorly fitted or top-dose-only effect, or another doubt; inactive means no such curve, though single readings can be large or run the other way. A potency beside an inconclusive call is a rough fit, not a confirmed value.

Test: Primary qHTS for delayed death inhibitors of the malarial parasite plastid, 96 hour incubation
Settings: P. falciparum luciferase reporter growth; series mostly up to 28.7 µM; activity change, negative = inhibition: at the top concentration
Summary of the method: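 Two parasite generations (96 h, 37 C, 5% CO2) of compound exposure in infected erythrocytes (0.05% parasitemia, 2% hematocrit). Luciferase-reporter P. falciparum; decreased luminescence indicates inhibited growth, aimed at apicoplast-acting delayed death.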
On the % scale 0 is the no-effect control and ±100 the full control effect; potency means the concentration at half of the fitted maximal effect.

For `CCn1c(=O)cc(SCC(=O)N2CCOCC2)c2ccccc21`, which Potency is on record?
Its Potency is inconclusive: 18.5 µM [inhibitor, single point].

Which Potency does the source give for `O=C1CCCc2ccccc2N1Cc1cccc(Cl)c1` here?
Its Potency is inconclusive: 11.7 µM [inhibitor, partial curve, poor fit].

For `O=C(COC(=O)c1cncc(Br)c1)NC1CC1`, which “activity change, negative = inhibition” value is on record?
Its value is inactive: 35.9%.

Which “activity change, negative = inhibition” value does the source give for `O=C1NC(=O)C(CCc2ccncc2)(CCc2ccccn2)C(=O)N1c1ccc(Br)cc1` (stereo not drawn) here?
The value was inactive: -22.1%.

Which “activity change, negative = inhibition” value does the source give for `COc1ccc(C(C(=O)NC(C)(C)C)N(CCO)C(=O)CCC(=O)Nc2cc(C)on2)cc1` (stereo not drawn) here?
Its value is inactive: 0%.

Which “activity change, negative = inhibition” value does the source give for `Fc1ccc(NCc2nnc(SCc3nnc(-c4ccccc4)o3)n2Cc2ccccc2)cc1` here?
Its value is inactive: -0.199%.

For `COc1cc2c(cc1OC)C(C)N(CC(=O)Nc1ccc(S(=O)(=O)N3CCCC3)cc1)CC2` (stereo not drawn), which Potency is on record?
Its Potency is inconclusive: 5.22 µM [inhibitor, partial curve, poor fit].

Which Potency does the source give for `COc1ccccc1NS(=O)(=O)c1cc(NC(=O)c2cccs2)ccc1N1CCOCC1` here?
Its Potency is inconclusive: 8.28 µM [inhibitor, partial curve, poor fit].

With `CCOc1cc(C2C3=C(CC(C)(C)CC3=O)N(CCOC)C3=C2C(=O)CC(C)(C)C3)ccc1O` as the compound, how does the Potency read?
The Potency was inconclusive: 13.1 µM [inhibitor, single point].

For `Cc1cccc(NC(=O)Cn2c(=O)n(Cc3ccccc3)c(=O)c3c(C)c(C)sc32)c1`, which Potency is on record?
The Potency was active: 14.7 µM.

Which Potency does the source give for `CC1CN(S(=O)(=O)c2cccc(C(=O)NCCC3=CCCCC3)c2)CC(C)O1` (stereo not drawn) here?
Its Potency is inconclusive: 10.4 µM [inhibitor, single point].

For `Cc1nnc(SCc2nc3ccccc3s2)n1N`, which “activity change, negative = inhibition” value is on record?
Its value is inactive: 195%.

Which “activity change, negative = inhibition” value does the source give for `C/C(=N/NS(=O)(=O)c1ccc(Cl)cc1)c1cccc(NC(=O)c2ccc(Cl)cc2Cl)c1` here?
The value was inactive: -2.96%.

For `NS(=O)(=O)c1cccc(NC(=O)C(Cc2ccccc2)NC(=O)c2ccccc2)c1` (stereo not drawn), which “activity change, negative = inhibition” value is on record?
The value was inactive: -6.36%.

Which Potency does the source give for `C=Cc1cccc(NC(=O)COc2ccccc2)c1` here?
Its Potency is inconclusive: 18.5 µM [inhibitor, single point].

With `CCOc1ccccc1/C=N/NC(=O)c1cc(C(C)C)[nH]n1` as the compound, how does the “activity change, negative = inhibition” value read?
Its value is inactive: 3.78%.

With `N#CCC(=O)N1CCN(C=O)CC1` as the compound, how does the “activity change, negative = inhibition” value read?
Its value is inactive: 42.6%.

With `Cc1ccc(-c2ccc(SCC(=O)N3CCCc4ccccc43)nn2)cc1` as the compound, how does the Potency read?
Its Potency is inconclusive: 10.4 µM [inhibitor, single point].

With `CC(=O)c1cccc(S(=O)(=O)NCC(c2ccco2)N2CCCCC2)c1` (stereo not drawn) as the compound, how does the “activity change, negative = inhibition” value read?
The value was inactive: 3.31%.

For `Cc1ccccc1NC(=O)c1cccc2nc3ccccc3nc12`, which Potency is on record?
The Potency was inconclusive: 11.7 µM [inhibitor, single point].

For `O=C(CCCN1C(=O)/C(=C/c2ccccc2Cl)SC1=S)NNC(=O)c1cccnc1`, which Potency is on record?
Its Potency is inconclusive: 4.15 µM [inhibitor, partial curve].

For `O=C(CSc1nnc(CNC(=O)c2c(F)cccc2F)o1)NCc1ccccc1`, which “activity change, negative = inhibition” value is on record?
Its value is inactive: 5.13%.

With `O=C(OCc1ccccc1)c1cn(-c2ccccc2)nc1-c1ccncc1` as the compound, how does the Potency read?
The Potency was active: 9.28 µM.

Which “activity change, negative = inhibition” value does the source give for `O=C(NC(=S)N1CCN(c2ccc(F)cc2)CC1)c1cccs1` here?
Its value is inactive: -3.16%.

Which Potency does the source give for `Cc1nnc(SCc2ccc(Cl)cc2)nc1/C=C/N(C)C` here?
Its Potency is inconclusive: 2.94 µM [inhibitor, full curve, poor fit].

With `O=C(COC(=O)c1ccccc1Br)NCc1ccccc1` as the compound, how does the “activity change, negative = inhibition” value read?
Its value is inactive: -8.69%.

For `Cc1ccc(S(=O)(=O)N(CC(=O)Nc2cccc(N(C)S(C)(=O)=O)c2)c2ccc(Cl)c(Cl)c2)cc1`, which Potency is on record?
The Potency was inconclusive: 13.1 µM [inhibitor, single point].

With `COc1ccc2c(c1)[C@H]1[C@H](CO2)[C@H](c2ccccc2)[C@]2(C)C(=O)Nc3cc(OC)c(OC)cc3C(=O)N12` as the compound, how does the Potency read?
The Potency was inconclusive: 18.5 µM [inhibitor, single point].

With `[N-]=[N+]=NC1c2ccccc2C(=O)N1Cc1ccccc1` (stereo not drawn) as the compound, how does the Potency read?
The Potency was inconclusive: 4.65 µM [inhibitor, partial curve].

Which Potency does the source give for `CCN(CC)CCn1c(SCC(=O)NCCC2=CCCCC2)nc2c(sc3ccccc32)c1=O` here?
Its Potency is inconclusive: 11.7 µM [inhibitor, single point].

For `COc1ccc(S(=O)(=O)N2CCCCC2)cc1NC(=O)C1CCCC1`, which Potency is on record?
Its Potency is inconclusive: 18.5 µM [inhibitor, single point].

Which Potency does the source give for `CC(C)(C)OC(=O)NCCCC[C@@H](C(=O)N1CCN(C(=O)OC(C)(C)C)CC1)n1cc(C(CO)NC(=O)OC(C)(C)C)nn1` (stereo partly drawn) here?
The Potency was inconclusive: 10.4 µM [inhibitor, partial curve].

Which “activity change, negative = inhibition” value does the source give for `Cc1ccc(-n2ncc3c(=O)[nH]c(SC(C)C)nc32)cc1` here?
The value was inactive: 26.7%.

For `Cc1ccc(S(=O)(=O)N2CN(CC3CCCO3)c3nc4ccccc4nc32)c(C)c1` (stereo not drawn), which Potency is on record?
Its Potency is inconclusive: 18.5 µM [inhibitor, single point].

Which Potency does the source give for `Cc1ccc(C)c(S(=O)(=O)N2CCN(C(=O)CCC(=O)c3cc(C)sc3C)CC2)c1` here?
The Potency was inconclusive: 18.5 µM [inhibitor, single point].

Which “activity change, negative = inhibition” value does the source give for `Cc1ccc(-c2nc(-c3ccccc3)no2)c(Cl)c1` here?
Its value is inactive: -17.1%.

With `COc1cc(C)c(CN2CCN(S(=O)(=O)c3ccc(Cl)s3)CC2)cc1OC` as the compound, how does the Potency read?
The Potency was inconclusive: 18.5 µM [inhibitor, single point].

For `Cn1c(=O)c2c(ncn2CC(=O)N/N=C/c2c[nH]c3ccccc23)n(C)c1=O`, which “activity change, negative = inhibition” value is on record?
The value was inactive: 9.69%.

Which “activity change, negative = inhibition” value does the source give for `O=C(NCC(c1ccco1)N1CCOCC1)c1cccc([N+](=O)[O-])c1` (stereo not drawn) here?
The value was inactive: 0%.

For `COc1ccccc1N1CC(C)(C)C(=O)N(C(=O)c2ccc(C)cc2)C1=S`, which “activity change, negative = inhibition” value is on record?
Its value is inactive: 77.4%.

With `OC[C@H]1O[C@@H]2O[C@H]3[C@H](O)[C@@H](O)[C@@H](O[C@H]4[C@H](O)[C@@H](O)[C@@H](O[C@H]5[C@H](O)[C@@H](O)[C@@H](O[C@H]6[C@H](O)[C@@H](O)[C@@H](O[C@H]7[C@H](O)[C@@H](O)[C@@H](O[C@H]8[C@H](O)[C@@H](O)[C@@H](O[C@H]1[C@H](O)[C@H]2O)O[C@@H]8CO)O[C@@H]7CO)O[C@@H]6CO)O[C@@H]5CO)O[C@@H]4CO)O[C@@H]3CO` as the compound, how does the “activity change, negative = inhibition” value read?
Its value is inactive: 2.23%.

For `CCOc1ccc(CCNC(=O)COC(=O)c2cc([N+](=O)[O-])ccc2N2CCOCC2)cc1OCC`, which Potency is on record?
The Potency was active: 9.28 µM.

Which Potency does the source give for `CCOc1ccccc1NC1=C(Cl)C(=O)N(c2ccccc2)C1=O` here?
The Potency was inconclusive: 0.0037 µM [inhibitor, full curve, poor fit].
